This passage reports Papp results from ChEMBL document CHEMBL6103588, “Promising thiazolidinedione-thiazole based multi-target and neuroprotective hybrids for Alzheimer's disease: Design, synthesis, in-vitro, in-vivo and in-silico studies” (Eur J Med Chem, 2025).

Structures are written as SMILES.

The nature of the data set: in vitro. As to conditions: PAMPA, pH 7.4. On the technique in general: PAMPA measures passive passage across an artificial lipid membrane.

`COc1cc2c(cc1OC)C(=O)C(CC1CCN(Cc3ccccc3)CC1)C2` (stereo unspecified) [DONEPEZIL]: the Papp (in general, a coefficient for how fast a substance crosses the barrier) at 20 h is 16.7 ×10⁻⁶ cm/s.
